Laboratory results: PubChem BioAssay AID1259260 (Sanger Institute, 2017)

- Purpose: 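Kinome knock-down with three anchor drugs to find synergy partners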 (primary screen)
- System: human NCI-H716 colorectal cancer cells
- Reagent: siRNA pool against human genes
- Treatment: anchor drugs BYL719 (alpelisib) 1 µM, cetuximab 5 µg/ml or trametinib 10 nM, each at a dose chosen to harm viability only mildly; DMSO vehicle for the knock-down-alone arm
- Read-out: 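Mean viability over replicates against non-targeting siRNA, robust z-score without drug, and per-drug synergy comparing combined with single treatments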
- Reading the numbers: viability robust z-score, siRNA alone: higher = more surviving cells; below -3 called essential; viability vs control, no drug: higher = more surviving cells; synergy score with BYL719 and synergy score with cetuximab and synergy score with trametinib: higher = stronger synergy (synthetic lethality) with drug
- Rule for the call: 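Essential when the robust z-score for knock-down alone falls below -3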
- Calls: active = essential (knock-down alone lowers viability); inactive = no essential effect
Shown is a random part of 794 reagents tested. 13 of all reagents (1.6%) count as active. 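Calls reflect only knock-down without drug; synergy above 0.15 was grouped apart and does not change the call.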 A number with no mark means an inactive call. No viability above 1 is reported: the scale is capped. The record does not give: the amount of reagent, the time to read-out.

The first 2 entries, to show the layout:
Gene,"viability robust z-score, siRNA alone","viability vs control, no drug (fraction of control)",synergy score with BYL719,synergy score with cetuximab,synergy score with trametinib
CSNK1G1,0.602,1,-0.283,-0.1,-0.227
AURKA,-1.74,0.756,-0.0978,0.0709,0.0526

The list itself, from the first entry:
Gene,"viability robust z-score, siRNA alone","viability vs control, no drug (fraction of control)",synergy score with BYL719,synergy score with cetuximab,synergy score with trametinib
CSNK1G1,0.602,1,-0.283,-0.1,-0.227
AURKA,-1.74,0.756,-0.0978,0.0709,0.0526
SRPK3,0.602,1,-0.226,-0.1,0.0844
PAK4,-0.736,0.861,-0.113,0.215,0.0524
STK24,-0.486,0.887,-0.225,-0.202,-0.18
DTYMK,-1.7,0.761,-0.139,-0.14,0.0701
RIPK1,-0.396,0.896,-0.093,-0.15,0.161
ARAF,-1.56,0.775,-0.235,-0.286,0.0434
PRAG1,0.48,0.987,0.189,-0.112,0.417
CAMK4,0.602,1,-0.283,-0.1,-0.0902
NEK6,0.602,1,-0.283,-0.1,-0.0939
PIK3CD,0.602,1,-0.0487,-0.1,0.0266
GNAS,0.602,1,-0.118,-0.1,-0.0981
GNE,0.602,1,-0.283,-0.1,-0.195
ACSL6,0.602,1,-0.283,-0.1,-0.241
PRKX,0.602,1,-0.259,-0.1,-0.0765
CSNK1D,0.602,1,-0.283,-0.1,-0.0711
ATM,-2.26,0.702,-0.228,-0.343,-0.145
MAP3K5,0.602,1,-0.283,-0.1,0.0522
ACVR1C,-0.992,0.834,-0.0799,-0.242,-0.0141
RAD21,0.429,0.982,0.00372,0.0169,-0.0458
EPHA7,0.602,1,-0.195,-0.1,-0.195
STK10,0.602,1,-0.231,-0.1,0.055
PDK2,0.439,0.983,0.072,0.114,0.207
PKIA,0.602,1,-0.0233,-0.1,0.0212
MAPK12,0.602,1,-0.00898,0.0313,0.0114
ADK,0.602,1,-0.26,-0.1,0.0609
MAP4K1,-0.0204,0.935,-0.074,-0.0884,-0.1
ERBB2,-1.66,0.765,-0.183,0.016,-0.0581
CDK7,0.602,1,-0.0969,-0.1,0.0277
TWF1,-0.201,0.917,-0.343,-0.175,-0.0986
IPPK,-4.7 (active),0.449,-0.371,-0.417,-0.26
SGK2,-0.882,0.846,-0.153,-0.16,-0.0191
RPS6KC1,0.602,1,-0.184,-0.1,0.0838
NUP98,-3.96 (active),0.526,-0.239,-0.0111,0.0464
CDC42BPB,0.602,1,-0.15,-0.0361,0.144
STK11,-1.69,0.762,-0.000563,-0.138,0.176
CDK6,0.602,1,-0.103,-0.1,0.118
PLK2,0.246,0.963,-0.11,0.222,0.0486
PIP4K2A,0.531,0.993,-0.0147,0.00116,0.0139
HSPB8,0.326,0.971,-0.24,-0.126,0.0306
PDGFRL,0.602,1,-0.128,-0.1,-0.000176
FER,0.602,1,-0.283,-0.1,-0.164
AK5,-0.823,0.852,-0.0315,-0.0109,-0.011
PLK1,-4.54 (active),0.465,-0.217,-0.223,-0.0809
XYLB,0.602,1,-0.0874,-0.1,-0.0741
EFNA5,-1.28,0.804,-0.0762,0.101,0.189
MTOR,0.602,1,0.0288,-0.0684,0.127
PCK1,0.2,0.958,-0.0165,-0.124,-0.0496
PIM3,-1.2,0.813,-0.295,-0.0422,-0.0644
CDK14,0.602,1,-0.227,-0.1,-0.124
SGK1,0.602,1,-0.0779,0.234,0.024
ACVR1,-0.687,0.866,0.0367,-0.0822,0.0754
STK38L,-1.8,0.751,-0.272,-0.0203,-0.116
CKMT1B,0.602,1,-0.159,-0.1,0.0506
HIPK2,0.602,1,-0.283,-0.1,0.193
EPHB2,0.602,1,0.134,0.377,0.344
GRK5,0.398,0.979,-0.165,-0.1,0.358
RUNX1,-4.12 (active),0.509,-0.235,-0.025,0.0779
EEF2K,0.602,1,-0.0526,-0.1,0.174
WEE1,0.602,1,-0.115,-0.1,0.166
CDK12,-0.438,0.892,-0.118,-0.112,0.0633
PSKH1,0.602,1,-0.283,-0.1,-0.0218
